Laboratory results reported in PMC9848269, “Investigation of novel alkyl/benzyl (4-sulphamoylphenyl)carbamimidothioates as carbonic anhydrase inhibitors” (Journal of Enzyme Inhibition and Medicinal Chemistry, 2023).

Target: T1, StCA2 (Salmonella enterica, UniProt O30898)
T1 construct: gene mig-5; recombinant, obtained in-house; beta-class CA
T1 sequence (O30898 41-246): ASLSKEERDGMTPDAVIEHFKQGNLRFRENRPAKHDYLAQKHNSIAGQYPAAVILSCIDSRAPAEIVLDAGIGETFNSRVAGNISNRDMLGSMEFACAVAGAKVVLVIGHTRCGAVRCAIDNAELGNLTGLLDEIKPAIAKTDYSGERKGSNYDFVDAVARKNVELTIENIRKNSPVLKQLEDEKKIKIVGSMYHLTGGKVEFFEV
Design: stopped-flow CO2 hydration assay, phenol red 557 nm, TRIS pH 8.4, recombinant beta-CA, 6 h preincubation
Conditions: inhibitor
Method: An applied photophysics stopped-flow instrument has been used for assaying the CA-catalysed CO2 hydration activity. Phenol red (at a concentration of 0.2 mM) was used as indicator, working at the absorbance maximum of 557 nm, with 20 mM Hepes (pH 7.5) as buffer for α-CAs or 20 mM TRIS (pH 8.4) as buffer for β-CAs, and 20 mM Na2SO4 (for maintaining constant the ionic strength), following the initial rates of the CA-catalysed CO2 hydration reaction for a period of 10 – 100 s. The CO2 concentrations ranged from 1.7 to 17 mM for the determination of the kinetic parameters and inhibition constants. For each inhibitor, at least six traces of the initial 5 – 10% of the reaction have been used for determining the initial velocity. The uncatalysed rates were determined in the same manner and subtracted from the total observed rates. Stock solutions of inhibitor (0.1 mM) were prepared in distilled – deionised water, and dilutions up to 0.01 nM were done thereafter with the assay buffer. Inhibitor and enzyme solutions were preincubated together for 6 h at room temperature prior to assay in order to allow for the formation of the E – I complex. The inhibition constants were obtained by nonlinear least-squares methods using PRISM 3 and the Cheng–Prusoff equation, as reported earlier[12]^,[13]^,[20]^,[21], and represent the mean from at least three different determinations. […]

Ki: 84 nM
Compound: CC(=O)Nc1nnc(S(N)(=O)=O)s1 [AAZ]
